Measured values as given in the supplement of paper PMC10331698.
± gives the standard deviation of the averaged measurements. Most values lie at the level of the controls, where differences are scatter.

Tests used:
Assay in all cases: level (log10 ratio to DMSO vehicle control); higher = higher biomarker level / cell amount than vehicle control
[1] = compound: C=C(C)C(=O)OCCC(F)(F)C(F)(F)C(F)(F)C(F)(F)C(F)(F)C(F)(F)F [6:2 Fluorotelomer methacrylate] (in DMSO); details: 2200 nM
Experimental: (§1)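 BioMAP Diversity Plus panel of 12 human primary cell co-culture systems (3C, 4H, LPS, SAg, BT, BF4T, BE3C, CASM3C, HDF3CGF, KF3CT, MyoF, Mphg). Compounds were added 1 h before stimulation and left for 24 h (MyoF 48 h; BT 72 h for soluble read-outs or 6 d for IgG). Biomarkers were read by ELISA, cytotoxicity by SRB, PBMC viability and proliferation by Alamar Blue. Each well value was divided by the mean of 8 DMSO control wells on the same plate and log10 transformed; duplicate blinded samples were tested at 4 concentrations.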

[2] = compound: CNS(=O)(=O)C(F)(F)C(F)(F)C(F)(F)C(F)(F)C(F)(F)C(F)(F)C(F)(F)C(F)(F)F [N-Methylperfluorooctanesulfonamide] (in DMSO); details: 2200 nM
Experimental: as §1

[3] = compound: FC(F)(F)C(F)(F)C(F)(F)C(F)(F)CCI [1H,1H,2H,2H-Perfluorohexyl iodide] (in DMSO); details: 2200 nM
Experimental: as §1

[4] = compound: FC(F)(F)C(F)(F)CNCC(F)(F)C(F)(F)F [Bis(1H,1H-perfluoropropyl)amine] (in DMSO); details: 2200 nM
Experimental: as §1

[5] = compound: FC(F)(F)COC(OCC(F)(F)F)OCC(F)(F)F [tris(Trifluoroethoxy)methane] (in DMSO); details: 2200 nM
Experimental: as §1

[6] = compound: O=C(O)C(F)(F)C(F)(F)C(F)(F)C(=O)O [Hexafluoroglutaric acid] (in DMSO)
Experimental: as §1

[7] = compound: O=C(O)C(F)(F)C(F)(F)C(F)(F)C(F)(F)C(F)(F)F [Perfluorohexanoic acid] (in DMSO)
Experimental: as §1

[8] = compound: O=C(O)C(F)(F)C(F)(F)C(F)(F)OC(F)(C(F)(F)F)C(F)(F)F [Perfluoro-4-isopropoxybutanoic acid] (in DMSO); details: 2200 nM
Experimental: as §1

[9] = compound: O=C(O)C(F)(OC(F)(F)C(F)(F)C(F)(F)F)C(F)(F)F [Ammonium perfluoro-2-methyl-3-oxahexanoate] (in Water)
Experimental: as §1

[10] = compound: O=C(O)C(F)(OC(F)(F)C(F)(OC(F)(F)C(F)(OC(F)(F)C(F)(F)C(F)(F)F)C(F)(F)F)C(F)(F)F)C(F)(F)F [Perfluoro-(2,5,8-trimethyl-3,6,9-trioxadodecanoic)acid] (in DMSO); details: 370 nM
Experimental: as §1

[11] = compound: O=C(O)CCC(F)(F)C(F)(F)C(F)(F)F [3:3 Fluorotelomer carboxylic acid] (in DMSO); details: 2200 nM
Experimental: as §1

[12] = compound: O=S(=O)(O)C(F)(F)C(F)(F)C(F)(F)C(F)(F)F [Perfluorobutanesulfonic acid] (in DMSO)
Experimental: as §1

[13] = compound: OCC(F)(F)C(F)(F)C(F)(F)C(F)(F)C(F)(F)C(F)(F)CO [1H,1H,8H,8H-Perfluorooctane-1,8-diol] (in DMSO); details: 2200 nM
Experimental: as §1

[14] = compound: OCC(F)(F)C(F)(F)C(F)(F)C(F)(F)C(F)(F)C(F)(F)F [6:1 Fluorotelomer alcohol] (in DMSO); details: 2200 nM
Experimental: as §1

[15] = compound: OCC(F)(F)C(F)(F)C(F)(F)C(F)F [1H,1H,5H-Perfluoropentanol] (in DMSO); details: 2200 nM
Experimental: as §1

[16] = compound: OCC(F)(F)OC(F)(F)C(F)(F)OC(F)(F)CO [1H,1H,8H,8H-Perfluoro-3,6-dioxaoctane-1,8-diol] (in DMSO); details: 2200 nM
Experimental: as §1

[17] = compound: OCCCC(F)(F)C(F)(F)C(F)(F)C(F)(F)C(F)(F)C(F)(F)C(F)(F)C(F)(F)F [3-(Perfluorooctyl)propanol] (in DMSO); details: 2200 nM
Experimental: as §1

Q: Which results are given for lMphg:IL-1alpha?
A: level (log10) [1]: 0.012 ± 0.034; level (log10) [2]: -0.0075 ± 0.032; level (log10) [3]: -0.0185 ± 0.0035; level (log10) [4]: -0.027 ± 0.047; level (log10) [5]: 0.0175 ± 0.035; level (log10) ([6]; 2200 nM): 0.0045 ± 0.005; level (log10) ([6]; 6700 nM): -0.004 ± 0.0057; level (log10) ([6]; 20000 nM): -0.0095 ± 0.023; level (log10) ([6]; 60000 nM): -0.022 ± 0.031; level (log10) ([7]; 2200 nM): 0.0085 ± 0.021; level (log10) ([7]; 6700 nM): 0.0035 ± 0.04; level (log10) ([7]; 20000 nM): 0 ± 0.011; level (log10) ([7]; 60000 nM): -0.009 ± 0.033; level (log10) [8]: 0.019 ± 0.021; level (log10) ([9]; 2200 nM): 0.0725 ± 0.084; level (log10) ([9]; 6700 nM): 0.0825 ± 0.059; level (log10) ([9]; 20000 nM): 0.079 ± 0.055; level (log10) ([9]; 60000 nM): 0.11 ± 0.021; level (log10) [10]: -0.0055 ± 0.028; level (log10) [11]: 0.028 ± 0.073; level (log10) ([12]; 2200 nM): 0.036 ± 0.028; level (log10) ([12]; 6700 nM): 0.0315 ± 0.016; level (log10) ([12]; 20000 nM): -0.0055 ± 0.056; level (log10) ([12]; 60000 nM): 0.034 ± 0.031; level (log10) [13]: 0.0095 ± 0.14; level (log10) [14]: 0.0095 ± 0.036; level (log10) [15]: -0.0445 ± 0.033; level (log10) [16]: -0.0625 ± 0.17; level (log10) [17]: 0.0235 ± 0.1

Q: How did the “level (log10)” value [1] turn out when lMphg:CXCL8/IL-8 was run?
A: 0.0345 ± 0.044

Q: What about the “level (log10)” value [2] of the same test system?
A: 0.0135 ± 0.081

Q: What about the “level (log10)” value [3] of the same test system?
A: -0.022 ± 0.048

Q: What about the “level (log10)” value [4] of the same test system?
A: 0.0015 ± 0.032

Q: What about the “level (log10)” value [5] of the same test system?
A: 0.005 ± 0.083

Q: What about the “level (log10)” value ([6]; 2200 nM) of the same test system?
A: 0.044 ± 0.052

Q: And the “level (log10)” value ([6]; 6700 nM)?
A: 0.014 ± 0.0042

Q: And the “level (log10)” value ([6]; 20000 nM)?
A: 0.044 ± 0.072

Q: What about the “level (log10)” value ([6]; 60000 nM) of the same test system?
A: -0.0185 ± 0.0021

Q: And the “level (log10)” value ([7]; 2200 nM)?
A: 0.0215 ± 0.029

Q: And the “level (log10)” value ([7]; 6700 nM)?
A: 0.045 ± 0.024

Q: What about the “level (log10)” value ([7]; 20000 nM) of the same test system?
A: 0.0515 ± 0.036

Q: What about the “level (log10)” value ([7]; 60000 nM) of the same test system?
A: 0.074 ± 0.023

Q: And the “level (log10)” value [8]?
A: -0.0195 ± 0.08

Q: What about the “level (log10)” value ([9]; 2200 nM) of the same test system?
A: 0.138 ± 0.04

Q: And the “level (log10)” value ([9]; 6700 nM)?
A: 0.137 ± 0.0021

Q: What about the “level (log10)” value ([9]; 20000 nM) of the same test system?
A: 0.194 ± 0.0078

Q: What about the “level (log10)” value ([9]; 60000 nM) of the same test system?
A: 0.261 ± 0.025

Q: And the “level (log10)” value [10]?
A: 0.0215 ± 0.025

Q: What about the “level (log10)” value [11] of the same test system?
A: 0.015 ± 0.013

Q: What about the “level (log10)” value ([12]; 2200 nM) of the same test system?
A: 0.0225 ± 0.035

Q: And the “level (log10)” value ([12]; 6700 nM)?
A: 0.022 ± 0.0028

Q: What about the “level (log10)” value ([12]; 20000 nM) of the same test system?
A: 0.06 ± 0.0085

Q: And the “level (log10)” value ([12]; 60000 nM)?
A: 0.183 ± 0.0099

Q: And the “level (log10)” value [13]?
A: -0.0025 ± 0.015

Q: And the “level (log10)” value [14]?
A: 0.0485 ± 0.011

Q: And the “level (log10)” value [15]?
A: 0.0075 ± 0.021

Q: What about the “level (log10)” value [16] of the same test system?
A: 0.012 ± 0.0042

Q: And the “level (log10)” value [17]?
A: 0.0085 ± 0.05

Q: For HDF3CGF:Proliferation 72hr, which “level (log10)” value [1] is on record?
A: -0.048 ± 0.011

Q: And the “level (log10)” value [2]?
A: 0.02 ± 0.067

Q: What about the “level (log10)” value [3] of the same test system?
A: -0.021 ± 0.0014

Q: And the “level (log10)” value [4]?
A: -0.013 ± 0.013

Q: What about the “level (log10)” value [5] of the same test system?
A: -0.025 ± 0.068

Q: What about the “level (log10)” value ([6]; 2200 nM) of the same test system?
A: -0.0905 ± 0.044

Q: What about the “level (log10)” value ([6]; 6700 nM) of the same test system?
A: -0.011 ± 0.059

Q: What about the “level (log10)” value ([6]; 20000 nM) of the same test system?
A: -0.013 ± 0.028

Q: What about the “level (log10)” value ([6]; 60000 nM) of the same test system?
A: -0.008 ± 0.05

Q: And the “level (log10)” value ([7]; 2200 nM)?
A: -0.032 ± 0.082

Q: And the “level (log10)” value ([7]; 6700 nM)?
A: 0.04 ± 0.0014

Q: What about the “level (log10)” value ([7]; 20000 nM) of the same test system?
A: 0.015 ± 0.034

Q: And the “level (log10)” value ([7]; 60000 nM)?
A: 0.0305 ± 0.037

Q: What about the “level (log10)” value [8] of the same test system?
A: -0.008 ± 0.02

Q: What about the “level (log10)” value ([9]; 2200 nM) of the same test system?
A: 0.046 ± 0.088

Q: And the “level (log10)” value ([9]; 6700 nM)?
A: 0.0575 ± 0.057

Q: What about the “level (log10)” value ([9]; 20000 nM) of the same test system?
A: 0.0635 ± 0.066

Q: And the “level (log10)” value ([9]; 60000 nM)?
A: -0.0255 ± 0.056

Q: And the “level (log10)” value [10]?
A: 0.0055 ± 0.039

Q: What about the “level (log10)” value [11] of the same test system?
A: -0.0165 ± 0.081

Q: What about the “level (log10)” value ([12]; 2200 nM) of the same test system?
A: -0.04 ± 0.016

Q: And the “level (log10)” value ([12]; 6700 nM)?
A: -0.0045 ± 0.013

Q: What about the “level (log10)” value ([12]; 20000 nM) of the same test system?
A: -0.0195 ± 0.015

Q: And the “level (log10)” value ([12]; 60000 nM)?
A: 0.0155 ± 0.05

Q: And the “level (log10)” value [13]?
A: -0.0565 ± 0.044

Q: And the “level (log10)” value [14]?
A: 0.0035 ± 0.033

Q: And the “level (log10)” value [15]?
A: -0.0215 ± 0.035

Q: And the “level (log10)” value [16]?
A: -0.026 ± 0.02

Q: What about the “level (log10)” value [17] of the same test system?
A: 0.012 ± 0.073

Q: What does the source list for HDF3CGF:CXCL8/IL-8?
A: level (log10) [1]: 0.0005 ± 0.023; level (log10) [2]: -0.0045 ± 0.016; level (log10) [3]: -0.002 ± 0.014; level (log10) [4]: 0.0085 ± 0.013; level (log10) [5]: -0.0035 ± 0.005; level (log10) ([6]; 2200 nM): -0.0095 ± 0.0064; level (log10) ([6]; 6700 nM): -0.005 ± 0.013; level (log10) ([6]; 20000 nM): -0.0005 ± 0.0064; level (log10) ([6]; 60000 nM): -0.0015 ± 0.0035; level (log10) ([7]; 2200 nM): 0 ± 0.0085; level (log10) ([7]; 6700 nM): -0.003 ± 0.0057; level (log10) ([7]; 20000 nM): 0.006 ± 0.0014; level (log10) ([7]; 60000 nM): 0.005 ± 0.0071; level (log10) [8]: 0.009 ± 0.0014; level (log10) ([9]; 2200 nM): -0.008 ± 0.0042; level (log10) ([9]; 6700 nM): -0.0135 ± 0.015; level (log10) ([9]; 20000 nM): 0.001 ± 0.011; level (log10) ([9]; 60000 nM): 0.0045 ± 0.0035; level (log10) [10]: -0.004 ± 0.014; level (log10) [11]: -0.0065 ± 0.0021; level (log10) ([12]; 2200 nM): 0.007 ± 0.018; level (log10) ([12]; 6700 nM): 0.0025 ± 0.0078; level (log10) ([12]; 20000 nM): -0.002 ± 0.0057; level (log10) ([12]; 60000 nM): -0.0025 ± 0.0021; level (log10) [13]: 0.0065 ± 0.005; level (log10) [14]: -0.003 ± 0.013; level (log10) [15]: 0.0095 ± 0.0021; level (log10) [16]: 0.0105 ± 0.0078; level (log10) [17]: 0.0035 ± 0.00071
